Test results from article PMC5592675.
No constants are given. Whether binding was seen depends on the method and setting. Binding seen in cells or lysates may run through a third protein. Some binding calls cover weakened binding; strength is not graded here. For some assays here: Sequences can lack the tags named with a protein.

Key:
[1] = target: T1, Myc-tagged LGR5-WT (leucine-rich repeat-containing G protein-coupled receptor 5) (UniProt O75473); experiment: co-IP; recombinant overexpression in HEK293T cells; whole-cell lysates incubated ~3-4 h at 4 °C with antibody magnetic beads (anti-Myc, anti-FLAG listed); Western blot
T1 sequence: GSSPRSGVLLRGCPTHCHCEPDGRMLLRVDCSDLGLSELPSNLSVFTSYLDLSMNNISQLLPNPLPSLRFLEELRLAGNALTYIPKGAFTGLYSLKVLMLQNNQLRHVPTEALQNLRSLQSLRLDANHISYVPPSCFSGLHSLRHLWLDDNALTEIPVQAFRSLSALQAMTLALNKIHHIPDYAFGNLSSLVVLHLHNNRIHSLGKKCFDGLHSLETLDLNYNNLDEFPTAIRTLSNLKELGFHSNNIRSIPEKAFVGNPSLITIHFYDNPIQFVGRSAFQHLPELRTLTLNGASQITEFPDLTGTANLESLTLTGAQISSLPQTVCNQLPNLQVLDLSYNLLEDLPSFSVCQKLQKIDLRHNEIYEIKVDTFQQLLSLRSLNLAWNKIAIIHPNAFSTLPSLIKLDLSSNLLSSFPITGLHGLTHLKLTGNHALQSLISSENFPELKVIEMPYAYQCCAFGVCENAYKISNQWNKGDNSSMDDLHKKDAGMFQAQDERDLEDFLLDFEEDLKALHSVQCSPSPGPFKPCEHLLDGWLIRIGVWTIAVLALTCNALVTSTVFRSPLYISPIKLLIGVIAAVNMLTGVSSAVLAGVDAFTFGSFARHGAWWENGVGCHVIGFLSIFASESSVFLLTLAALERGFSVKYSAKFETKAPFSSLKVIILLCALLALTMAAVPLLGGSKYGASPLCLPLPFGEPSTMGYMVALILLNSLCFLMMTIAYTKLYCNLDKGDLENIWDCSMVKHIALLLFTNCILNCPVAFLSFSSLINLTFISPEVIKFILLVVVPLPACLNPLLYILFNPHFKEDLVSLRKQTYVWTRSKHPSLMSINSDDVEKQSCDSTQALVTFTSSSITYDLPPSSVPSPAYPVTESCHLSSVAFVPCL

[2] = target: T2, Myc-tagged LGR5-ΔC (C-terminal tail-truncated mutant, lacking AA 837-907) (UniProt O75473); experiment: as above
T2 sequence: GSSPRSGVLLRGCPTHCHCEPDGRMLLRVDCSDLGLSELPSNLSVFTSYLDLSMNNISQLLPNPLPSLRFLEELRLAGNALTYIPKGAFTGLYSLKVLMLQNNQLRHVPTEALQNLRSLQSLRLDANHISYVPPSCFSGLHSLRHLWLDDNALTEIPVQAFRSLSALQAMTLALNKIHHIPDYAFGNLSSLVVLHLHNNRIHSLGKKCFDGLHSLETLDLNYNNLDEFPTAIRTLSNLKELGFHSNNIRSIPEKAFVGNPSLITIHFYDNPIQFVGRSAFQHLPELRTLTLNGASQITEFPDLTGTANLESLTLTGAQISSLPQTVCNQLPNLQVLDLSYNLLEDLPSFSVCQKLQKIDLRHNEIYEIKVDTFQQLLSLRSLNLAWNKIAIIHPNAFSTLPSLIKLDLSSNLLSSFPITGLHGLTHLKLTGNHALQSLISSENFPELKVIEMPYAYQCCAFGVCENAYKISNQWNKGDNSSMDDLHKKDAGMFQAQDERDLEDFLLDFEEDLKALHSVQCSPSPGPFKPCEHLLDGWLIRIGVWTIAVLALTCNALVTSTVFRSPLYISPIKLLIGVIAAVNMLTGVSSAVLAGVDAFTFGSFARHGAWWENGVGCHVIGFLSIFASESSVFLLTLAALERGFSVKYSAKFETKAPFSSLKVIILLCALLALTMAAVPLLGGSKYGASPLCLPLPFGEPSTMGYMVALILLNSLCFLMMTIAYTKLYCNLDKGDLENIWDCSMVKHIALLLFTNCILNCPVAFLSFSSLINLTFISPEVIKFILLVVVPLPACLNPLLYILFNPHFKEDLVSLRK

[3] = target: T3, endogenous LGR5 of LoVo colon cancer cells (human (endogenous in LoVo)) (UniProt O75473); experiment: co-IP; endogenous proteins of LoVo cells; precipitation with an LGR5-specific antibody; Western blot for IQGAP1
T3 sequence: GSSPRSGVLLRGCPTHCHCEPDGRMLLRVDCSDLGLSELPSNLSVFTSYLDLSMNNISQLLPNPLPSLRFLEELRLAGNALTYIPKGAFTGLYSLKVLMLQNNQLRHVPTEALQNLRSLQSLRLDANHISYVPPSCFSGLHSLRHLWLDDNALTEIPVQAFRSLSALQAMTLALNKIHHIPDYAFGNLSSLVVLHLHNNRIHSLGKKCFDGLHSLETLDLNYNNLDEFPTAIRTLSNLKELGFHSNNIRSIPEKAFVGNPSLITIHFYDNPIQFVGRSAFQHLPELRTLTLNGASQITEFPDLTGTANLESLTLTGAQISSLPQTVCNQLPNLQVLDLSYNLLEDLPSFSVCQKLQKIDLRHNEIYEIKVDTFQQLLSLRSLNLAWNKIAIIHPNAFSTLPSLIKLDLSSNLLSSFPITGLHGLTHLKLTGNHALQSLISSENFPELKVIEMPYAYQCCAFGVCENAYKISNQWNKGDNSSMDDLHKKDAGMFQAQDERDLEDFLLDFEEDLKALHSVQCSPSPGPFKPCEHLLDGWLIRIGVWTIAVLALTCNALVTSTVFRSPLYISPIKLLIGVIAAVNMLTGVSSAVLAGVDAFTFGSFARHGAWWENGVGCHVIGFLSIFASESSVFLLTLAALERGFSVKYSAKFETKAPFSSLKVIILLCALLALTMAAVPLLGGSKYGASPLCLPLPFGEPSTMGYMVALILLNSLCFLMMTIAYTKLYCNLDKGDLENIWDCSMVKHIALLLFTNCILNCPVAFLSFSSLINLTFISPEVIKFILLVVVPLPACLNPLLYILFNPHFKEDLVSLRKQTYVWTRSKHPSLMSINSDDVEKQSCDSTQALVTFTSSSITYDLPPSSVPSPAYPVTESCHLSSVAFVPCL

[4] = target: T1, Myc-tagged LGR5-WT (leucine-rich repeat-containing G protein-coupled receptor 5); experiment: co-IP; purified IQGAP1 fragment DR6 (from E. coli) with LGR5-WT or LGR5-ECD; Western blot; only the binder purified

FLAG-tagged IQGAP1 (IQ motif-containing GTPase-activating protein 1) (from UniProt Q9JKF1 1-1657)
binding [1]: binds | binding [2]: binds

endogenous human IQGAP1 (from UniProt P46940 1-1657)
binding [3]: binds

purified IQGAP1 fragment spanning amino acids 877-1558 (DR6) (from UniProt P46940 877-1558) (domain or fragment)
binding [4]: binds

B1: FLAG-IQGAP1 C-terminal half spanning amino acids 893-1657 (domain or fragment, UniProt Q9JKF1 893-1657)
chain: REEVITLIRSNQQLENDLNLMDIKIGLLVKNKITLQDVVSHSKKLTKKNKEQLSDMMMINKQKGGLKALSKEKREKLEAYQHLFYLLQTNPTYLAKLIFQMPQNKSTKFMDSVIFTLYNYASNQREEYLLLRLFQTALQEEIKSKVDQIQEIVTGNPTVIKMVVSFNRGARGQNALRQILAPVVKEIMDDKSLNIKTDPVDIYKSWVNQMESQTGEASKLPYDVTPEQALSHEEVKTRLDNSIRNMRAVTDKFLSAIVSSVDKIPYGMRFIAKVLKDSLHEKFPDAGEDELLKIIGNLLYYRYMNPAIVAPDAFDIIDLSAGGQLTTDQRRNLGSIAKMLQHAASNKMFLGDNAHLSIINEYLSQSYQKFRRFFQVACDVPELQDKFNVDEYSDLVTLTKPVIYISIGEIINTHTLLLDHQDAIAPEHNDPIHELLDDLGEVPTIESLIGESCGNSNDPNKEALAKTEVSLTLTNKFDVPGDENAEMDARTILLNTKRLIVDVIRFQPGETLTEILETPATNEQEAEHQRAMQRRAIRDAKTPDKMKKSKPMKEDNNLSLQEKKEKIQTGLKKLTELGTVDPKNRYQELINDIAKDIRNQRRYRQRRKAELVKLQQTYSALNSKATFYGEQVDYYKSYIKTCLDNLASKGKVSKKPREMKGKKSKKISLKYTAARLHEKGVLLEIEDLQANQFKNVIFEIGPTEEVGDFEVKAKFMGVQMETFMLHYQDLLQLQYEGVAVMKLFDRAKVNVNLLIFLLNKKFYGK
binding [1]: binds
